# In patent US20230201217A1 (priority 2019, published 2023):
# Sequences of proteins named here, by UniProt entry; tags and fusion partners are left off.
# UniProt P08684, whole entry: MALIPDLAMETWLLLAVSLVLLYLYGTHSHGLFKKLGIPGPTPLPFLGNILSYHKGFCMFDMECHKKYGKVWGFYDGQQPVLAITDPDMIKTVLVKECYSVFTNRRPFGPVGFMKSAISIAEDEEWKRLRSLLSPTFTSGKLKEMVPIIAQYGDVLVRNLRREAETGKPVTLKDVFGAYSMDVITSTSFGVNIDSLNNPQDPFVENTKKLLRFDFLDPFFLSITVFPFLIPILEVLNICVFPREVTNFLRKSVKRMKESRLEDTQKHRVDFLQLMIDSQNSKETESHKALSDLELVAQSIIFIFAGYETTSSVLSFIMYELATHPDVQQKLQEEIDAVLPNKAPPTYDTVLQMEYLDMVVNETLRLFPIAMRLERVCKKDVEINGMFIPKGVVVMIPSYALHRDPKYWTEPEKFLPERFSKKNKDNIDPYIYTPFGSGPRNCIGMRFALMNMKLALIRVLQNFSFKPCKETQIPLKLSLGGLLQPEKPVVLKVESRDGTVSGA
# Certain results were filed several times, with different values. The list is limited to them. The source may hold further records. The values listed for one entry do not match, cause unknown; dose, time, organism, isomer or construct need not be as stated for each record.
# Legend:
# [1] = Toxicokinetics, 14-day oral gavage study in CD-1 mice; conditions: 25 mg/kg/day oral, 14 days
# [2] = Toxicokinetics, 14-day study in cynomolgus monkeys; conditions: 300 mg/kg/day oral, Day 14
# [3] = biological target: CYP3A4 (Homo sapiens, UniProt P08684)
# [4] = Phase 1 first-in-human study, pharmacokinetics in plasma; conditions: cohort B, 4 mg PO at 0 and +10 hours
compound,measurement,setting,value
COCCC1CC2CN3CCc4c([nH]c5ccccc45)C(C(=O)OC)(C2)C13 (racemic),18-MC as percentage of circulating drug-related material,[1],less than 1% and < 1%
same,18-MC as percentage of circulating drug-related material,[2],less than 3% and < 3%
same,IC50,[3],13 µM and > 100 µM
same,"Cmax, Average",[4],about 30 ng/mL and 30 ng/mL
